Test [1] has as its target T1, VN-DLT (DLT fused with the N-terminal part of split Venus YFP) (rice) (UniProt Q9LWU9).
T1 sequence: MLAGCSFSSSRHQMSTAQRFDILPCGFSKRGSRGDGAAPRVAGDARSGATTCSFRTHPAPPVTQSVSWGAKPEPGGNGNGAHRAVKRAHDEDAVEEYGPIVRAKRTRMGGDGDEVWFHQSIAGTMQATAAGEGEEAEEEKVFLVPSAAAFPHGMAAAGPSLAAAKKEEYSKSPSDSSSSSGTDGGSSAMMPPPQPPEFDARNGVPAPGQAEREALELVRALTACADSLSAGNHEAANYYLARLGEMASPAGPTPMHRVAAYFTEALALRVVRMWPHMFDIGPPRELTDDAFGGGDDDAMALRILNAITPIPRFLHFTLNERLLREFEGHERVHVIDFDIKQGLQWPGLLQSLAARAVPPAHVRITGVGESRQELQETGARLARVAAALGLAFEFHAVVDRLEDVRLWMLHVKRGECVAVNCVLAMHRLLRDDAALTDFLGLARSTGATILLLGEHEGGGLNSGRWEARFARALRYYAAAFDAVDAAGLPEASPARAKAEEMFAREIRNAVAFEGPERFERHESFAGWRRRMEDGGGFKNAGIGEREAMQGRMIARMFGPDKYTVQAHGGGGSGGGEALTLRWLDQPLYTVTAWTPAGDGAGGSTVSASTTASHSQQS
Kind of test: split reporter; BiFC with split Venus YFP (VC, VN) in transfected rice protoplasts; confocal microscopy.

Test [2] addresses T2, GSK2 fused with a half of split Venus YFP (BiFC) (rice) (UniProt Q60EZ2).
T2 sequence: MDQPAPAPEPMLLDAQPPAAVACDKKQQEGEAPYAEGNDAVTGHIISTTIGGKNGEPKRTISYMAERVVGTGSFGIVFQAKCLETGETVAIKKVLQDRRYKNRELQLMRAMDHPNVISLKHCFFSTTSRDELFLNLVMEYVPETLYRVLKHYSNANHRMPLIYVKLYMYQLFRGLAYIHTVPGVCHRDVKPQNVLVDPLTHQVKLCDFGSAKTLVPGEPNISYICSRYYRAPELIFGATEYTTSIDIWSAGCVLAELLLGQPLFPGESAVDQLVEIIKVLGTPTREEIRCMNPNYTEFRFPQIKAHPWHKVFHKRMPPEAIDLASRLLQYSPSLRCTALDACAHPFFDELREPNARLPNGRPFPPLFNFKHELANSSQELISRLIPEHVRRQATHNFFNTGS
The description is as above.

For test [3], the target named is T3, GSK2-NLuc (GSK2 fused with N-terminal of luciferase protein) (rice) (UniProt Q60EZ2).
T3 sequence: T2 sequence
Kind of test: split reporter; split-luciferase complementation in tobacco leaves; chemiluminescence imaged with a cold CCD.

Test [4] has as its target T4, GSK2 bait (GSK3-like kinase) (rice) (UniProt Q60EZ2).
T4 sequence: T2 sequence
Kind of test: two-hybrid; pairwise test of bait and prey in yeast (Clontech procedures); growth on -Leu/-Trp/-His/-Ade medium.

The target in test [5] is T5, DLT bait (GRAS family protein) (rice) (UniProt Q9LWU9).
T5 sequence: T1 sequence
The test is described as above.

No constants are given. Whether binding was seen depends on the method and setting. Binding calls can cover weak binding; strength is not graded here. For some assays here: In cells and extracts the contact can be indirect. For some assays here: Sequences can lack the tags named with a protein.

Regarding “VC-OFP1 (OFP1 fused with a half of split Venus YFP) (rice)”, the binding result in test [1] is recorded as “binds”; in test [2], “binds weakly”.
With “CLuc-OFP1 (OFP1 fused with C-terminal of luciferase protein) (rice)”, the binding entry in test [3] is given as “binds”.
On to Full length OFP1 prey (OFP1-AD) (rice), for which the binding entry in test [4] and in test [5] was “binds” in each case.

These data come from PMC5623909.
